Patent US20240043903A1, “BIOSENSOR USING PET SUBSTRATE, FABRICATION METHOD THEREFOR, AND METHOD FOR INSPECTING SENSITIVITY OF MICROORGANISM TO ANTIBIOTIC BY USING SAME” (priority 2020, published 2024)
For at least one compound, name, drawing or mass did not settle the structure.

Tested on: E. coli (ATCC25922)
Test: Susceptibility test of microorganism to antibiotic by real-time capacitance change on interdigitated-electrode PET biosensor
Format: cell-based, Escherichia coli
Details: antibiotic 0.5 to 8 μg/mL; for susceptibility of E. coli (ATCC25922) to antibiotic: 10^5 cells/mL; for capacitance change after treatment with antibiotic: E. coli (ATCC25922) 10^5 cells/mL
Experimental: The strain used in the experiment was Escherichia coli (ATCC25922), and a standard strain was purchased from ATCC of the United States and used. For the culture of the strain, the Mueller-Hinton media (MH media), which is a culture medium recommended by the US standard CLSI and European standard EUCAST, was purchased from DIFCO and used according to the recommended preparation method in the product manual. After culturing the strain in the MH media for 24 hours, the strain culture medium was adjusted to McFarland OD 0.5, and then diluted 1/100 with the culture medium (strain concentration: 5×10^5 to 10^6 cfu/mL) and treated on the sensor.
The susceptibility of microorganisms to antibiotics was measured by using the sensors fabricated in Examples 1 and 2.

[1] = sensor of Example 1 (PET substrate-Ag electrode), FIG. 4b
[2] = sensor of Example 2 (PET substrate-Au electrode), FIG. 5c

For CN(C)[C@@H]1C(O)=C(C(N)=O)C(=O)[C@@]2(O)C(O)=C3C(=O)c4c(O)cccc4[C@@](C)(O)[C@H]3C[C@@H]12 [tetracycline], the “susceptibility of E. coli (ATCC25922) to antibiotic” value [1] was “susceptibility”, the “capacitance change after treatment with antibiotic” value [1] was “no change in capacitance” and the “susceptibility of E. coli (ATCC25922) to antibiotic” value [2] was “susceptible”. For the same compound, the “capacitance change after treatment with antibiotic” value [2] was “no change in capacitance”.
